# Laboratory results reported in the supplement of paper PMC8728848.
# This is one part of the list.
# B1: Wzz (Escherichia coli) (protein)
# chain: MRTWKFPSVRVMMRVENNNVSGQNHDPEQIDLIDLLVQLWRGKMTIIISVIVAIVLAIGYLAVAKEKWTSTAIITQPDVGQIAGYNNAMNVIYGQAAPKVSDLQETLIGRFSSAFSALAETLDNQEEPEKLTIEPSVKNQQLPLTVSYVGQTAEGAQMKLAQYIQQVDDKVNQELEKDLKDNIALGRKNLQDSLRTQEVVAQEQKDLRIRQIQEALQYANQAQVTKPQIQQTGEDITQDTLFLLGSEALESMIKHEATRPLVFSSNYYQTRQNLLDIDNLDVDKLDIHAYLYVMKPTLPIRRDSPKKAITLILAVLLGGMVGAGIVLGRNALRNYNAK
# What was measured:
# Assay in all cases: glycan array binding signal (z-score within array); higher = stronger binding
# Settings in all cases: glycan notation: IUPAC condensed, linker removed
# Gal(a1-3)Gal(b1-3)GlcNAc = biological target: Gal(a1-3)Gal(b1-3)GlcNAc
# How it was run: (§1)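 Arrays were curated from the Consortium for Functional Glycomics database, 3228 in total, and kept only where the protein sequence was available. Binding is expressed as a within-array Z-score. This score was averaged across arrays of the same protein sequence at different concentrations or buffers and across linkers, and negative values can be read as non-binding.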
# [1] = biological target: Gal(a1-3)Gal(b1-3)GlcNAc(b1-2)Man
# How it was run: as §1
# [2] = biological target: Gal(a1-3)Gal(b1-3)GlcNAc(b1-2)Man(a1-3)[Gal(a1-3)Gal(b1-3)GlcNAc(b1-2)Man(a1-6)]Man(b1-4)GlcNAc(b1-4)GlcNAc
# How it was run: as §1
# [3] = biological target: Gal(a1-3)Gal(b1-3)GlcNAc(b1-3)GalNAc
# How it was run: as §1
# [4] = biological target: Gal(a1-3)Gal(b1-3)GlcNAc(b1-6)GalNAc
# How it was run: as §1
# [5] = biological target: Gal(a1-3)Gal(b1-3)[Fuc(a1-4)]GlcNAc(b1-2)Man(a1-3)[Gal(a1-3)Gal(b1-3)[Fuc(a1-4)]GlcNAc(b1-2)Man(a1-6)]Man(b1-4)GlcNAc(b1-4)GlcNAc
# How it was run: as §1
# Gal(a1-3)Gal(b1-4)Glc = biological target: Gal(a1-3)Gal(b1-4)Glc
# How it was run: as §1
# Gal(a1-3)Gal(b1-4)GlcNAc = biological target: Gal(a1-3)Gal(b1-4)GlcNAc
# How it was run: as §1
# [6] = biological target: Gal(a1-3)Gal(b1-4)GlcNAc(b1-2)Man
# How it was run: as §1
# [7] = biological target: Gal(a1-3)Gal(b1-4)GlcNAc(b1-2)Man(a1-3)[Gal(a1-3)Gal(b1-4)GlcNAc(b1-2)Man(a1-6)]Man(b1-4)GlcNAc(b1-4)GlcNAc
# How it was run: as §1
# [8] = biological target: Gal(a1-3)Gal(b1-4)GlcNAc(b1-3)GalNAc
# How it was run: as §1
# [9] = biological target: Gal(a1-3)Gal(b1-4)GlcNAc(b1-6)GalNAc
# How it was run: as §1
# [10] = biological target: Gal(a1-3)Gal(b1-4)[Fuc(a1-3)]GlcNAc
# How it was run: as §1
# [11] = biological target: Gal(a1-3)Gal(b1-4)[Fuc(a1-3)]GlcNAc(b1-2)Man(a1-3)[Gal(a1-3)Gal(b1-4)[Fuc(a1-3)]GlcNAc(b1-2)Man(a1-6)]Man(b1-4)GlcNAc(b1-4)GlcNAc
# How it was run: as §1
# Gal(a1-3)GalNAc = biological target: Gal(a1-3)GalNAc
# How it was run: as §1
# [12] = biological target: Gal(a1-3)[Gal(a1-4)]Gal(b1-4)GlcNAc
# How it was run: as §1
# [13] = biological target: Gal(a1-4)Gal(b1-3)GlcNAc(b1-2)Man(a1-3)[Gal(a1-4)Gal(b1-3)GlcNAc(b1-2)Man(a1-6)]Man(b1-4)GlcNAc(b1-4)GlcNAc
# How it was run: as §1
# Gal(a1-4)Gal(b1-4)Glc = biological target: Gal(a1-4)Gal(b1-4)Glc
# How it was run: as §1
# Gal(a1-4)Gal(b1-4)GlcNAc = biological target: Gal(a1-4)Gal(b1-4)GlcNAc
# How it was run: as §1
# [14] = biological target: Gal(a1-4)Gal(b1-4)GlcNAc(b1-2)Man(a1-3)[Gal(a1-4)Gal(b1-4)GlcNAc(b1-2)Man(a1-6)]Man(b1-4)GlcNAc(b1-4)GlcNAc
# How it was run: as §1
# [15] = biological target: Gal(a1-4)Gal(b1-4)GlcNAc(b1-3)Gal(b1-4)Glc
# How it was run: as §1
# Gal(a1-4)GlcNAc = biological target: Gal(a1-4)GlcNAc
# How it was run: as §1
# Gal(a1-6)Glc = biological target: Gal(a1-6)Glc
# How it was run: as §1
# Gal(b1-2)Gal = biological target: Gal(b1-2)Gal
# How it was run: as §1
# Gal(b1-3)Gal = biological target: Gal(b1-3)Gal
# How it was run: as §1
# Gal(b1-3)Gal(b1-4)GlcNAc = biological target: Gal(b1-3)Gal(b1-4)GlcNAc
# How it was run: as §1
# Gal(b1-3)GalNAc = biological target: Gal(b1-3)GalNAc
# How it was run: as §1
# [16] = biological target: Gal(b1-3)GalNAc(a1-3)[Fuc(a1-2)]Gal(b1-4)Glc
# How it was run: as §1
# [17] = biological target: Gal(b1-3)GalNAc(a1-3)[Fuc(a1-2)]Gal(b1-4)GlcNAc
# How it was run: as §1
# Gal(b1-3)GalNAc(b1-3)Gal = biological target: Gal(b1-3)GalNAc(b1-3)Gal
# How it was run: as §1
# [18] = biological target: Gal(b1-3)GalNAc(b1-3)Gal(a1-4)Gal(b1-4)Glc
# How it was run: as §1
# [19] = biological target: Gal(b1-3)GalNAc(b1-4)Gal(b1-4)Glc
# How it was run: as §1
# [20] = biological target: Gal(b1-3)GalNAc(b1-4)[Neu5Ac(a2-3)]Gal(b1-4)Glc
# How it was run: as §1
# Gal(b1-3)GlcNAc = biological target: Gal(b1-3)GlcNAc
# How it was run: as §1
# [21] = biological target: Gal(b1-3)GlcNAc(a1-3)Gal(b1-4)GlcNAc
# How it was run: as §1
# [22] = biological target: Gal(b1-3)GlcNAc(a1-6)Gal(b1-4)GlcNAc
# How it was run: as §1
# Gal(b1-3)GlcNAc(b1-2)Man = biological target: Gal(b1-3)GlcNAc(b1-2)Man
# How it was run: as §1
# [23] = biological target: Gal(b1-3)GlcNAc(b1-2)Man(a1-3)[Gal(b1-3)GlcNAc(b1-2)Man(a1-6)]Man(b1-4)GlcNAc(b1-4)GlcNAc
# How it was run: as §1
binder,measurement,setting,value
B1,glycan array binding signal (z-score),Gal(a1-3)Gal(b1-3)GlcNAc,-0.218
same,glycan array binding signal (z-score),[1],0.855
same,glycan array binding signal (z-score),[2],1.4
same,glycan array binding signal (z-score),[3],-0.04
same,glycan array binding signal (z-score),[4],-0.032
same,glycan array binding signal (z-score),[5],1.41
same,glycan array binding signal (z-score),Gal(a1-3)Gal(b1-4)Glc,0.834
same,glycan array binding signal (z-score),Gal(a1-3)Gal(b1-4)GlcNAc,0.318
same,glycan array binding signal (z-score),[6],-0.518
same,glycan array binding signal (z-score),[7],-0.26
same,glycan array binding signal (z-score),[8],0.187
same,glycan array binding signal (z-score),[9],-0.648
same,glycan array binding signal (z-score),[10],-0.969
same,glycan array binding signal (z-score),[11],-0.412
same,glycan array binding signal (z-score),Gal(a1-3)GalNAc,-1.05
same,glycan array binding signal (z-score),[12],0.421
same,glycan array binding signal (z-score),[13],0.168
same,glycan array binding signal (z-score),Gal(a1-4)Gal(b1-4)Glc,-0.111
same,glycan array binding signal (z-score),Gal(a1-4)Gal(b1-4)GlcNAc,-0.183
same,glycan array binding signal (z-score),[14],-0.086
same,glycan array binding signal (z-score),[15],0.032
same,glycan array binding signal (z-score),Gal(a1-4)GlcNAc,-1.12
same,glycan array binding signal (z-score),Gal(a1-6)Glc,-0.8
same,glycan array binding signal (z-score),Gal(b1-2)Gal,-0.473
same,glycan array binding signal (z-score),Gal(b1-3)Gal,-0.428
same,glycan array binding signal (z-score),Gal(b1-3)Gal(b1-4)GlcNAc,0.033
same,glycan array binding signal (z-score),Gal(b1-3)GalNAc,0.081
same,glycan array binding signal (z-score),[16],0.127
same,glycan array binding signal (z-score),[17],-0.295
same,glycan array binding signal (z-score),Gal(b1-3)GalNAc(b1-3)Gal,-0.357
same,glycan array binding signal (z-score),[18],0.019
same,glycan array binding signal (z-score),[19],0.343
same,glycan array binding signal (z-score),[20],-0.404
same,glycan array binding signal (z-score),Gal(b1-3)GlcNAc,-0.435
same,glycan array binding signal (z-score),[21],-0.135
same,glycan array binding signal (z-score),[22],-0.474
same,glycan array binding signal (z-score),Gal(b1-3)GlcNAc(b1-2)Man,0.87
same,glycan array binding signal (z-score),[23],1.41

# Fetched one by one from the entries so far:
binder,measurement,setting,value
B1,glycan array binding signal (z-score),[13],0.168
same,glycan array binding signal (z-score),Gal(a1-3)Gal(b1-3)GlcNAc,-0.218
same,glycan array binding signal (z-score),Gal(a1-6)Glc,-0.8
